Laboratory results taken from the supplement of paper PMC12823440, “Inhibitors supercharge kinase turnover through native proteolytic circuits” (Nature, 2025).
Where a name gives a salt, the structure may show the parent alone. This is one part of the list. The calls rarely recur for the same compound in another form.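 In K562 cells expressing nanoluciferase-fused kinases, luminescence was recorded at 4 h intervals between 2 and 18 h, normalized as percent of control with DMSO at 100% and a positive control at 0%. A significant (2 sigma) signal drop marks a time point as decreased. The authors' rule for a hit is not shown and takes in more than the number of time points.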

The chains behind the UniProt entries cited, without tags or fusion partners. Where a name states a change or a piece, a line headed by the entry shows the natural chain unless it says otherwise.
UniProt P00519, whole entry: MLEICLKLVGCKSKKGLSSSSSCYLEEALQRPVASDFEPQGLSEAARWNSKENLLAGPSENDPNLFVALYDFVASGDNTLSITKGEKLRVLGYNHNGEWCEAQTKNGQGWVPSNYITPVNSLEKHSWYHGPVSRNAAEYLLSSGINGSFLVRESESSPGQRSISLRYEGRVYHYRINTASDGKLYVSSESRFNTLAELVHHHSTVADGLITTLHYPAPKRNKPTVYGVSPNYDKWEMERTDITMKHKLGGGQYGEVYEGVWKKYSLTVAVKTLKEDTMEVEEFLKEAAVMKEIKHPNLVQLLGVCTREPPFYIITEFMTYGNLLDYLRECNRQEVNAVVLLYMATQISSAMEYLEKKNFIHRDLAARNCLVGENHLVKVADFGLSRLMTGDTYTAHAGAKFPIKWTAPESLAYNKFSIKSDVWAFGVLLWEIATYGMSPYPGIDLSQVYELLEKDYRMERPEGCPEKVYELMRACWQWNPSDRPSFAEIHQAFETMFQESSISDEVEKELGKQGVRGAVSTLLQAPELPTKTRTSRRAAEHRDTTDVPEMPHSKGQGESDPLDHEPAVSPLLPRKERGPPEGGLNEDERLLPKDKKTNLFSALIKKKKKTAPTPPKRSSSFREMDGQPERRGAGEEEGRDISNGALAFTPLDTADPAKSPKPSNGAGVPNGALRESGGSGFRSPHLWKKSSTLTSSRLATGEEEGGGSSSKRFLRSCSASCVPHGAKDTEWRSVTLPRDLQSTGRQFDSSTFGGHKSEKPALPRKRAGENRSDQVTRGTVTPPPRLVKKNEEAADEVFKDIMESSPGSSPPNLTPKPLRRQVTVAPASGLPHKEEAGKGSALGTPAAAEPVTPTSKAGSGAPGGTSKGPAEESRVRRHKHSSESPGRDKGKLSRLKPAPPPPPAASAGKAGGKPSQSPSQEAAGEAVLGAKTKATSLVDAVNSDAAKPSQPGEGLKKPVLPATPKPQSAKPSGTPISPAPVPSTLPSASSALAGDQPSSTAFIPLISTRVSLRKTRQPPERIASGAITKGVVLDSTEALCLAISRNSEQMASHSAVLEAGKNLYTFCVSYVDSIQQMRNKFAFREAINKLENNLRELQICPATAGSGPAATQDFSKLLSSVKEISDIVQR
UniProt P31749: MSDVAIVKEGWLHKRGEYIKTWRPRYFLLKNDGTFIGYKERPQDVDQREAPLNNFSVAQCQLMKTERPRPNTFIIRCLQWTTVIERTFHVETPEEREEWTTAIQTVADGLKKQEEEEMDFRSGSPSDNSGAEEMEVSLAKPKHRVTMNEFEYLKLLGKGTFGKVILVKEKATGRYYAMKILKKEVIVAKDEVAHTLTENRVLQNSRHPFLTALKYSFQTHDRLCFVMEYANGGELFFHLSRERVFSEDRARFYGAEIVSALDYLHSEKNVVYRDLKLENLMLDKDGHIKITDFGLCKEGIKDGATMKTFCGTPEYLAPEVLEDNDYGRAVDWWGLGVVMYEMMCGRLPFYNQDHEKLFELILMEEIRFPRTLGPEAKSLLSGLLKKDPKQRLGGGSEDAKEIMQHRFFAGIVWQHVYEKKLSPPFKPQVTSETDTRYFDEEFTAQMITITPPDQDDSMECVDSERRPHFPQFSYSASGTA
UniProt Q9UM73: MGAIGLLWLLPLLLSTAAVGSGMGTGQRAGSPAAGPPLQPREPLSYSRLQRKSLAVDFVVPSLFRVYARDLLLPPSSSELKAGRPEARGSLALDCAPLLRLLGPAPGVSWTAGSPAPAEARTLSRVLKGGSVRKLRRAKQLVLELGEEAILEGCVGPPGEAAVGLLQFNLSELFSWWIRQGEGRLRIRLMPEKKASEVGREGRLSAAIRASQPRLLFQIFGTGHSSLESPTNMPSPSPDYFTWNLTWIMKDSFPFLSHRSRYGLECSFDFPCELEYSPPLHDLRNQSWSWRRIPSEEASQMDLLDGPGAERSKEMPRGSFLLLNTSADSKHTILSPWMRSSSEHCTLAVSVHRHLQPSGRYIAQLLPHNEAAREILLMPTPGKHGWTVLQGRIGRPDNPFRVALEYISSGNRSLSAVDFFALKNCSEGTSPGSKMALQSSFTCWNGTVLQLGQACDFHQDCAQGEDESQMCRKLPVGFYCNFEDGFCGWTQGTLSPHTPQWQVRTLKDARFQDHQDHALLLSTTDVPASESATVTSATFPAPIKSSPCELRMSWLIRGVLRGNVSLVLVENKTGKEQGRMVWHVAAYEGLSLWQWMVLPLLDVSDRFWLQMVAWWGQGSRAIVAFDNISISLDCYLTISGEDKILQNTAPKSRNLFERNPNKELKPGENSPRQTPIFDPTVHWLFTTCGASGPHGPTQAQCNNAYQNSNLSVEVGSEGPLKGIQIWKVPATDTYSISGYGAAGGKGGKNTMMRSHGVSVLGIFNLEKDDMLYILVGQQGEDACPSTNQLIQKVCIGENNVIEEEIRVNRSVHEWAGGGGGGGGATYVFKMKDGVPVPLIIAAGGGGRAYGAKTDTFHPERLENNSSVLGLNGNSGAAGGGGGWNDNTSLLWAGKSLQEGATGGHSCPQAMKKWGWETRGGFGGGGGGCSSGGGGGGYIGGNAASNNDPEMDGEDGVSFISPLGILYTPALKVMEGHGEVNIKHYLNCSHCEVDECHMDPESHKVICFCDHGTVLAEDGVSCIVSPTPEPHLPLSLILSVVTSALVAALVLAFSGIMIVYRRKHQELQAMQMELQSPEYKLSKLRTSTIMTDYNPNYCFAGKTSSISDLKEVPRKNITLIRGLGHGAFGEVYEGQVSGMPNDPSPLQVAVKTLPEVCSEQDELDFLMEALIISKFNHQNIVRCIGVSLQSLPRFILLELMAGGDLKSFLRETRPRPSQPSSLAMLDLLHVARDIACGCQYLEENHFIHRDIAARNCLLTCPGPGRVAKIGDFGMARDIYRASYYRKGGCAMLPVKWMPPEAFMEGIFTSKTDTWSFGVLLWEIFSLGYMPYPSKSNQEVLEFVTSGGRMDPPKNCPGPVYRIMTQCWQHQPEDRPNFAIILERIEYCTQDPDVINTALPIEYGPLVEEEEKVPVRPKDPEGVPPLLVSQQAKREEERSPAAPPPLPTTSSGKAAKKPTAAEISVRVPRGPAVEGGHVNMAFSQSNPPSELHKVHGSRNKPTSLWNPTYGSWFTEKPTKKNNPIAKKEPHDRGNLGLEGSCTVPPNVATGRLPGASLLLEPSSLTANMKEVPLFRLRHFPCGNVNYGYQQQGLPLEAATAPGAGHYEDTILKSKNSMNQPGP
UniProt P10398: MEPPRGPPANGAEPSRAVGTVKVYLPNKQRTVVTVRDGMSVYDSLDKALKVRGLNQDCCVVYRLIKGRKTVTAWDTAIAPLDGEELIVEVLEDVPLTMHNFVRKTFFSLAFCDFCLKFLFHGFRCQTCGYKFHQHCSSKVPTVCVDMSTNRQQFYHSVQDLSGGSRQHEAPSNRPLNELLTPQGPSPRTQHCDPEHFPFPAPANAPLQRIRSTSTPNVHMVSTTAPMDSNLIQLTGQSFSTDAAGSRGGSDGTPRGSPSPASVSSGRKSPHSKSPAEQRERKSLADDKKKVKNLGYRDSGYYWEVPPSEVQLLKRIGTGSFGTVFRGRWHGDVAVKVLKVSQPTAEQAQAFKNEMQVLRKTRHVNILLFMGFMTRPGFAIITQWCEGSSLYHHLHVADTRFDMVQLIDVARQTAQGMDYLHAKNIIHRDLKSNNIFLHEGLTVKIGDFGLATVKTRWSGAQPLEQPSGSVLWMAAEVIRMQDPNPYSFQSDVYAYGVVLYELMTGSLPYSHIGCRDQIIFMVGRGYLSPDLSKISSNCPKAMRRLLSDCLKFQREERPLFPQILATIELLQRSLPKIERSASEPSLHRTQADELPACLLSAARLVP
UniProt O14965: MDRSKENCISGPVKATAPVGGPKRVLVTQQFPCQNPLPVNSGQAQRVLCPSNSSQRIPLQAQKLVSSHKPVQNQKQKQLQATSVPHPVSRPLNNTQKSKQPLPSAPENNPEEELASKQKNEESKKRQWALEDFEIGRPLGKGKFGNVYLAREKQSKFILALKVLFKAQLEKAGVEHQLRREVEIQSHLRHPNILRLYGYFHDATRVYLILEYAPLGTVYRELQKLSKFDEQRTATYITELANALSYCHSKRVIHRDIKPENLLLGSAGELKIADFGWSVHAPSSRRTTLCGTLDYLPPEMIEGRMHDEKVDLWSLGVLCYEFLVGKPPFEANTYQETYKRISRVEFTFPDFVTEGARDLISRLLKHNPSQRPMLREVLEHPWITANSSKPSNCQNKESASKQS
UniProt Q9UQB9: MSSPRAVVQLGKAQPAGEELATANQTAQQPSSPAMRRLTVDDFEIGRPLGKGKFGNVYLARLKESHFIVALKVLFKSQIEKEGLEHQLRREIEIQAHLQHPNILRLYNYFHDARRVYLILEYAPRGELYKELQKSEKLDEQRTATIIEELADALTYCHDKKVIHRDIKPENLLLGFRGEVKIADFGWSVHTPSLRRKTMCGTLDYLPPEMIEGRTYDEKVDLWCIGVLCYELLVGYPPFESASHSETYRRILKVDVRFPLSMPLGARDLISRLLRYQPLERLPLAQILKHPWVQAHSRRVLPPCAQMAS
UniProt P51451: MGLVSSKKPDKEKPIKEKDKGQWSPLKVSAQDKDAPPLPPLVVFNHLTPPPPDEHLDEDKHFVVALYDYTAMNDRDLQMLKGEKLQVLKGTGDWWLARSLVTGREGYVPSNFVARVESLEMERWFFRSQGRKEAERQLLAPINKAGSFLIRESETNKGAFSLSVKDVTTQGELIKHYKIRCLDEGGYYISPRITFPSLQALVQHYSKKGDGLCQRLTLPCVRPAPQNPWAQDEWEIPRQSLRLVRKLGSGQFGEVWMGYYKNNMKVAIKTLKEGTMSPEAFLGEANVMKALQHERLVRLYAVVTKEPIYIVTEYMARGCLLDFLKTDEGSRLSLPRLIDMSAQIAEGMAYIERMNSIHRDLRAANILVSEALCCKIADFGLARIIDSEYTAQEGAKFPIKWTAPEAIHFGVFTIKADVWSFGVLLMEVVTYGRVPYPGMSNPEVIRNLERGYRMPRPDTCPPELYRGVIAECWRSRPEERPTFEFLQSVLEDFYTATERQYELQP
UniProt P51813: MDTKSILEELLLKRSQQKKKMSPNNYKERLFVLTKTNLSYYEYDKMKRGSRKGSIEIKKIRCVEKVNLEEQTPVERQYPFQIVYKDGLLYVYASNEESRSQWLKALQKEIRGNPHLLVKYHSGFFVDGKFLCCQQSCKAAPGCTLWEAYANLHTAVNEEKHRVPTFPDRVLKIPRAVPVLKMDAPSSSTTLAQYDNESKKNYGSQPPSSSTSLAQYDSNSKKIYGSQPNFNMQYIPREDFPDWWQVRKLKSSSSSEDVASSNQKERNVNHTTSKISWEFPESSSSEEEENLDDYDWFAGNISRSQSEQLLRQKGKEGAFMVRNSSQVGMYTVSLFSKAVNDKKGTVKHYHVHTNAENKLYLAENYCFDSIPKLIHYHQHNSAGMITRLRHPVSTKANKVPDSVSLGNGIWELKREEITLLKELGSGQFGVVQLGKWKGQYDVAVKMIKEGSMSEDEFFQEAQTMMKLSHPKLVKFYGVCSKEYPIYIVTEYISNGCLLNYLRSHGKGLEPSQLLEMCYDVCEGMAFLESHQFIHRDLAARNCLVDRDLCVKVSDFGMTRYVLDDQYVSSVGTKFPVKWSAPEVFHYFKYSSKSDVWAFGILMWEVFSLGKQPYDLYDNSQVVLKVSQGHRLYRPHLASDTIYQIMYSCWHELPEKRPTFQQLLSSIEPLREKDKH
UniProt P15056, whole entry, looked up: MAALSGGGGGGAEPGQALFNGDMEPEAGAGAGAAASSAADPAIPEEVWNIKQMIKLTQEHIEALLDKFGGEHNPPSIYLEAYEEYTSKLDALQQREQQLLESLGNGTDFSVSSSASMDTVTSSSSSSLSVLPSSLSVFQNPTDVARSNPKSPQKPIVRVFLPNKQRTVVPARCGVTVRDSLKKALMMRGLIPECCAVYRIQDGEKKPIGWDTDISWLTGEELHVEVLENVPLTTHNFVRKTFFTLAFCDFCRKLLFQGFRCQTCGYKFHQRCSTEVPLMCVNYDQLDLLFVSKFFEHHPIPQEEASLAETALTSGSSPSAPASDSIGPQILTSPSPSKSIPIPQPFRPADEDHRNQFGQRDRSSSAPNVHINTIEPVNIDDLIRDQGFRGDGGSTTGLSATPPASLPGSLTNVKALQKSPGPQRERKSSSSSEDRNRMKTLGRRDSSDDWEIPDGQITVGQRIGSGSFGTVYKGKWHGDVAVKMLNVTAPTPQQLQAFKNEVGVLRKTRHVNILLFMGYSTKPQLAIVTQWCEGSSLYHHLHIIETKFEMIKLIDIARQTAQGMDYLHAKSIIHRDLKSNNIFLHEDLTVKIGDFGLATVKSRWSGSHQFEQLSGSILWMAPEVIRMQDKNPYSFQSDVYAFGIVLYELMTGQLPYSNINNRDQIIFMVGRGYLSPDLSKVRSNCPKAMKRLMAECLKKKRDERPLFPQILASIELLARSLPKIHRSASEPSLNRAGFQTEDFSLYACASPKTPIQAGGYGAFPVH

Columns and labels:
Test in all cases: kinase-Nluc reporter destabilization hit call (1 = scored as downregulated) (binary); higher = compound decreases kinase abundance
Conditions in all cases: K562; 2-18 h
ABL1 = ABL1 (UniProt P00519)
AKT1 = AKT1 (UniProt P31749)
ALK = ALK (UniProt Q9UM73)
ARAF = ARAF (UniProt P10398)
AURKA = AURKA (UniProt O14965)
AURKB = AURKB (UniProt Q96GD4)
AURKC = AURKC (UniProt Q9UQB9)
BLK = BLK (UniProt P51451)
BMX = BMX (UniProt P51813)
BRAF = BRAF (UniProt P15056)

Measured: kinase-Nluc reporter destabilization hit call

O=C1Nc2ccc(C(=O)c3ccco3)cc2C1=Cc1cc(Cl)c(O)c(Cl)c1 (2.5 µM)
inactive: ABL1 = 0 | AKT1 = 0 | ALK 0 | ARAF 0 | AURKA 0 | AURKB 0 | AURKC 0 | BLK 0 | BMX 0 | BRAF 0

CNc1nc(Nc2ccc(C(=O)N3CCOCC3)cc2OC)nc2[nH]cc(Cl)c12 (2.5 µM)
inactive: ABL1 = 0 | AKT1 = 0 | ALK 0 | ARAF 0 | AURKA 0 | AURKB 0 | AURKC 0 | BLK 0 | BMX 0 | BRAF 0

COc1cc(Nc2ncc(F)c(Nc3ccc4c(n3)N(COP(=O)(O)O)C(=O)C(C)(C)O4)n2)cc(OC)c1OC [Fostamatinib Disodium] (10 µM)
inactive: ABL1 = 0 | AKT1 = 0 | ALK 0 | ARAF 0 | AURKA 0 | AURKC 0 | BLK 0 | BMX 0 | BRAF 0

Cc1[nH]c(/C=C2\C(=O)Nc3ccccc32)c(C)c1CCC(=O)O [(Z)-Orantinib] (10 µM)
inactive: ABL1 = 0 | AKT1 = 0 | ALK 0 | ARAF 0 | AURKA 0 | AURKB 0 | AURKC 0 | BMX 0 | BRAF 0

C[C@@]1(c2ncncc2F)NC(=O)c2cc(-c3cn[nH]c3)ccc21 (10 µM)
inactive: ABL1 = 0 | AKT1 = 0 | ALK 0 | ARAF 0 | AURKA 0 | AURKB 0 | AURKC 0 | BLK 0 | BMX 0 | BRAF 0

O=C1NC(=O)/C(=C/c2ccc3nccnc3c2)S1 (10 µM)
inactive: ABL1 = 0 | AKT1 = 0 | ALK 0 | ARAF 0 | AURKA 0 | AURKB 0 | AURKC 0 | BLK 0 | BMX 0 | BRAF 0

COc1ncc(Cl)cc1S(=O)(=O)Nc1ccc(F)c(C#Cc2cnc(N)nc2)c1F (2.5 µM)
active: BMX 1
inactive: ABL1 = 0 | AKT1 = 0 | ALK 0 | ARAF 0 | AURKA 0 | AURKB 0 | AURKC 0 | BLK 0 | BRAF 0

Oc1ccc(Nc2nc(-c3ccc(Cl)cc3)cs2)cc1 (10 µM)
inactive: ABL1 = 0 | AKT1 = 0 | ALK 0 | ARAF 0 | AURKA 0 | AURKB 0 | AURKC 0 | BLK 0 | BMX 0 | BRAF 0

Cc1[nH]c(/C=C2\C(=O)Nc3ccccc32)c(C)c1CCC(=O)O [Orantinib] (10 µM)
inactive: ABL1 = 0 | AKT1 = 0 | ALK 0 | ARAF 0 | AURKA 0 | AURKB 0 | AURKC 0 | BMX 0 | BRAF 0

CCOc1ccc2cc(-c3nn(CC4CCN(C)CC4)c4ncnc(N)c34)ccc2n1 (10 µM)
inactive: ABL1 = 0 | AKT1 = 0 | ALK 0 | ARAF 0 | AURKA 0 | AURKB 0 | AURKC 0 | BLK 0 | BMX 0 | BRAF 0

O=c1cc(CN2CCOCC2)occ1OCCCCCSc1ccnc2cc(C(F)(F)F)ccc12 (10 µM)
inactive: ABL1 = 0 | AKT1 = 0 | ALK 0 | ARAF 0 | AURKA 0 | AURKB 0 | AURKC 0 | BLK 0 | BMX 0 | BRAF 0

O=C(N/N=C/c1coc2ccccc2c1=O)c1cccnc1 (10 µM)
inactive: ABL1 = 0 | AKT1 = 0 | ALK 0 | ARAF 0 | AURKA 0 | AURKB 0 | AURKC 0 | BLK 0 | BMX 0 | BRAF 0

C=CC(=O)Nc1cccc(Nc2nc(Nc3ccc(N4CCN(C(C)=O)CC4)cc3OC)ncc2C(F)(F)F)c1 [Rociletinib] (10 µM)
inactive: ABL1 = 0 | AKT1 = 0 | ARAF 0 | AURKA 0 | AURKB 0 | AURKC 0 | BLK 0 | BMX 0

CNC(=O)c1cc(COc2nnc(Nc3ccc(Cl)cc3)c3ccoc23)ccn1 [Telatinib] (10 µM)
inactive: ABL1 = 0 | AKT1 = 0 | ALK 0 | ARAF 0 | AURKA 0 | AURKB 0 | AURKC 0 | BLK 0 | BMX 0 | BRAF 0

Nc1ncnc2c1c(-c1ccc(Oc3ccccc3)cc1)nn2C1CCCC1 (2.5 µM)
inactive: ABL1 = 0 | AKT1 = 0 | ALK 0 | ARAF 0 | AURKA 0 | AURKB 0 | AURKC 0 | BLK 0 | BMX 0 | BRAF 0

2 successive records from above, for reference:
C=CC(=O)Nc1cccc(Nc2nc(Nc3ccc(N4CCN(C(C)=O)CC4)cc3OC)ncc2C(F)(F)F)c1 [Rociletinib] (10 µM)
inactive: ABL1 = 0 | AKT1 = 0 | ARAF 0 | AURKA 0 | AURKB 0 | AURKC 0 | BLK 0 | BMX 0

CNC(=O)c1cc(COc2nnc(Nc3ccc(Cl)cc3)c3ccoc23)ccn1 [Telatinib] (10 µM)
inactive: ABL1 = 0 | AKT1 = 0 | ALK 0 | ARAF 0 | AURKA 0 | AURKB 0 | AURKC 0 | BLK 0 | BMX 0 | BRAF 0

More results follow:

CC(C)(C)c1nc(-c2cccc(NS(=O)(=O)c3c(F)cccc3F)c2F)c(-c2ccnc(N)n2)s1 [Dabrafenib] (2.5 µM)
inactive: ABL1 = 0 | AKT1 = 0 | ALK 0 | ARAF 0 | AURKA 0 | AURKB 0 | AURKC 0 | BLK 0 | BMX 0 | BRAF 0

COc1cc(Nc2ncc(F)c(Nc3ccc4c(n3)NC(=O)C(C)(C)O4)n2)cc(OC)c1OC (10 µM)
inactive: ABL1 = 0 | AKT1 = 0 | ALK 0 | ARAF 0 | AURKB 0 | AURKC 0 | BLK 0 | BRAF 0

Cc1ccccc1-n1c([C@H](C)Nc2nc(N)nc3nc[nH]c23)nc2cccc(C)c2c1=O [CAL-130 (Hydrochloride)] (10 µM)
inactive: ABL1 = 0 | AKT1 = 0 | ALK 0 | ARAF 0 | AURKA 0 | AURKB 0 | AURKC 0 | BLK 0 | BMX 0 | BRAF 0

CC#CC(=O)N1CC[C@@H](n2c(=O)n(-c3ccc(Oc4ccccc4)cc3)c3c(N)ncnc32)C1 [Tirabrutinib] (10 µM)
inactive: ABL1 = 0 | AKT1 = 0 | ALK 0 | ARAF 0 | AURKA 0 | AURKB 0 | AURKC 0 | BLK 0 | BRAF 0

COc1ccc(Cl)c(Nc2nc3ccccc3nc2NS(=O)(=O)c2cccc(NC(=O)C(C)(C)N)c2)c1 [Pilaralisib] (10 µM)
inactive: ABL1 = 0 | AKT1 = 0 | ALK 0 | ARAF 0 | AURKA 0 | AURKB 0 | AURKC 0 | BLK 0 | BMX 0 | BRAF 0

C[C@@H]1CCN(C(=O)CC#N)C[C@@H]1N(C)c1ncnc2[nH]ccc12 [Tofacitinib] (10 µM)
inactive: ABL1 = 0 | AKT1 = 0 | ALK 0 | ARAF 0 | AURKA 0 | AURKB 0 | AURKC 0 | BMX 0 | BRAF 0

CC#CC(=O)N1CC[C@@H](n2c(=O)n(-c3ccc(Oc4ccccc4)cc3)c3c(N)ncnc32)C1 [Tirabrutinib (hydrochloride)] (10 µM)
inactive: ABL1 = 0 | AKT1 = 0 | ALK 0 | ARAF 0 | AURKA 0 | AURKB 0 | AURKC 0 | BLK 0 | BRAF 0

COc1cc(Nc2ncc(F)c(Nc3ccc4c(n3)N(COP(=O)(O)O)C(=O)C(C)(C)O4)n2)cc(OC)c1OC [Fostamatinib (disodium hexahydrate)] (10 µM)
inactive: ABL1 = 0 | AKT1 = 0 | ALK 0 | ARAF 0 | AURKA 0 | AURKC 0 | BLK 0 | BMX 0 | BRAF 0

C=CC(=O)Nc1cccc(Nc2nc(Nc3ccc(N4CCN(C(C)=O)CC4)cc3OC)ncc2C(F)(F)F)c1 [Rociletinib hydrobromide] (10 µM)
inactive: ABL1 = 0 | AKT1 = 0 | ARAF 0 | AURKA 0 | AURKB 0 | AURKC 0 | BLK 0 | BMX 0

COc1ccccc1-c1cc(Nc2cccc(CS(N)(=O)=O)c2)ncn1 (10 µM)
inactive: ABL1 = 0 | AKT1 = 0 | ALK 0 | ARAF 0 | AURKA 0 | AURKB 0 | AURKC 0 | BLK 0 | BMX 0 | BRAF 0

Cc1ccc(CNc2ncnc3ccc(-c4ccc(CO)o4)cc23)o1 (10 µM)
inactive: ABL1 = 0 | AKT1 = 0 | ALK 0 | ARAF 0 | AURKA 0 | AURKB 0 | AURKC 0 | BLK 0 | BMX 0 | BRAF 0

Oc1cc2c(cc1O)C(Cc1cccc3ccccc13)NCC2 (stereo unspecified) (10 µM)
inactive: ABL1 = 0 | AKT1 = 0 | ALK 0 | ARAF 0 | AURKA 0 | AURKB 0 | AURKC 0 | BLK 0 | BMX 0 | BRAF 0

CCc1cc2c(cc1N1CCC(N3CCOCC3)CC1)C(C)(C)c1[nH]c3cc(C#N)ccc3c1C2=O [Alectinib (Hydrochloride)] (2 µM)
inactive: ABL1 = 0 | AKT1 = 0 | ARAF 0 | AURKA 0 | AURKB 0 | AURKC 0 | BLK 0 | BMX 0 | BRAF 0

N#CCC1CCN(c2nc(Nc3ccc(N4CCC(O)CC4)cc3)c3c(=O)[nH]ncc3n2)CC1 [Gusacitinib] (10 µM)
inactive: ABL1 = 0 | AKT1 = 0 | ALK 0 | ARAF 0 | AURKA 0 | AURKB 0 | AURKC 0 | BLK 0 | BMX 0 | BRAF 0
